# Results: PubChem BioAssay (NCATS)
# Chains of the proteins cited; added tags and fusions are not shown. Lines headed by an entry give the natural chain unless they say otherwise; changes in a name come on top.
# UniProt P11473: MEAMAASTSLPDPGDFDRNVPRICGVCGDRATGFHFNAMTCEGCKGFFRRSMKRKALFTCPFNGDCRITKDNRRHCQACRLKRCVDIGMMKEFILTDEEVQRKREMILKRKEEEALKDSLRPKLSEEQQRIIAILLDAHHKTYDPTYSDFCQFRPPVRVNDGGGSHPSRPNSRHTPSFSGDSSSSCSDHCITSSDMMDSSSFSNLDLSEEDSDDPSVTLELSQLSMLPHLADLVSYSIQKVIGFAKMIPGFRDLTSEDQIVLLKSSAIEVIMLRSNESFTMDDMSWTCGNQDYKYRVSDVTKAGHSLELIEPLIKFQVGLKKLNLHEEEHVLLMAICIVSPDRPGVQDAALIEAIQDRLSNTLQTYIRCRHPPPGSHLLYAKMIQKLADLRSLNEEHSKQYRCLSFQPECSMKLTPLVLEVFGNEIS
# Inconclusive results, whose numbers are uncertain, are shown with a selection of clear calls. Potencies of inconclusive entries are doubtful fits and often do not repeat. Calls of active or inactive are those of the source. The call rests on the fitted dose curve; in most records, active means well fitted inhibition curve with a large enough effect; inconclusive means small, poorly fitted or top-dose-only effect, or another doubt; inactive means no such curve, though single readings can be large or run the other way.
# Biological target: Vitamin D3 receptor (Homo sapiens) (UniProt P11473)
# Test: qHTS for Inhibitors of the vitamin D receptor (VDR): Hit Validation in Primary Screen (AID 602199)
# Settings: VDR-coactivator inhibition assay, qHTS confirmation
# Procedure, shortened: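 With 800 nM VDR and 5 uM LG19078 agonist present, compounds were incubated 2 h at ambient temperature with Alexa 647-labelled SRC2-3. Displacement was read as polarization at 620/688 nm.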
# Potency means the concentration at half of the fitted maximal effect.
row,SMILES,Potency
1,O=C1NC(=O)C(=Cc2cc(Cl)ccc2OCc2ccc(C(=O)O)cc2)C(=O)N1,"inconclusive: 21.2 µM [inhibitor, partial curve]"
2,COC(=O)C[C@]1(C(=O)OC)CN(C#N)N(c2ccc(Cl)cc2)C12c1ccccc1-c1ccccc12,"inconclusive: 9.47 µM [inhibitor, partial curve]"
3,COC(=O)CCC(=O)Nc1sc(Cc2ccccc2)c(C)c1C(N)=O,"inconclusive: 6.7 µM [inhibitor, full curve]"
4,Cc1ccccc1N1C(=O)NC(=O)/C(=C\c2cnn(-c3ccccc3)c2)C1=O,active: 10.6 µM
5,Cc1ccc(OP2(=O)Nc3cc(C)c(C)cc3S2)cc1 (configuration not stated),active: 6.7 µM
6,CN(C)c1ccc(/C=C/[N+](=O)[O-])cc1,"inconclusive: 7.52 µM [inhibitor, full curve]"
7,O=C1NC(=O)N(c2ccccc2)C(=O)/C1=C\c1ccccc1[N+](=O)[O-],active: 21.2 µM
8,CCOc1ccc(/C=C2/C(=O)NC(=O)N(CCc3ccc(F)cc3)C2=O)cc1,"inconclusive: 23.8 µM [inhibitor, partial curve]"
9,CCCCn1c(NC(=O)c2ccc(Br)o2)c(C(=O)OCC)c2nc3ccccc3nc21,active: 2.51 µM
10,CCN(CC)c1ccc(NC(=O)c2cccc(C)c2)cc1S(=O)(=O)Nc1ccccc1OC,"inconclusive: 10.6 µM [inhibitor, partial curve]"

# Biological target: Vitamin D3 receptor (Homo sapiens) (UniProt P11473)
# Test: qHTS for Inhibitors of the vitamin D receptor (VDR): Hit Validation using a Fluorescein Assay (AID 602200)
# Settings: VDR-coactivator binding, fluorescein fluorescence polarization; series mostly up to 57.1 µM
# Procedure, shortened: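 Compounds added to VDR ligand-binding domain (1.5 uM) with agonist LG19078 (5 uM) and 5 nM SRC2-3 fluorescein peptide, final concentrations. After 2 h at ambient temperature, polarization of fluorescein emission (Ex 495 nm/Em 520 nm) measured.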
row,SMILES,Potency
1,O=C1NC(=O)C(=Cc2ccc(-c3cc(Cl)ccc3[N+](=O)[O-])o2)C(=O)N1,inactive
2,O=C1NC(=O)C(=Cc2cc(Cl)ccc2OCc2ccc(C(=O)O)cc2)C(=O)N1,"inconclusive: 25.1 µM [inhibitor, partial curve]"
3,COC(=O)C[C@]1(C(=O)OC)CN(C#N)N(c2ccc(Cl)cc2)C12c1ccccc1-c1ccccc12,active: 6.31 µM
4,C=CCN1C(=O)/C(=C/c2ccc(Br)s2)C(=O)NC1=S,inactive
5,COC(=O)CCC(=O)Nc1sc(Cc2ccccc2)c(C)c1C(N)=O,"inconclusive: 0.794 µM [inhibitor, full curve, poor fit]"
6,O=C1NC(=O)C(=Cc2ccc(Sc3ccccc3)o2)C(=O)N1,"inconclusive: 3.16 µM [inhibitor, partial curve, poor fit]"
7,O=C(/C=C/c1ccccc1)c1c(O)n(CCc2ccccc2)c(=O)[nH]c1=O,"inconclusive: 2.51 µM [inhibitor, full curve, poor fit]"
8,O=C(O)CCn1cc(C=C2C(=O)NC(=S)NC2=O)c(-c2cccc(Cl)c2)n1,"inconclusive: 2.82 µM [inhibitor, full curve, poor fit]"
9,CCOC(=O)COc1ccc(/C=C2\C(=O)NC(=S)N(c3ccc(OC)cc3)C2=O)cc1OC,active: 14.1 µM
10,CC1CCN(C(CC(=O)c2ccccc2)C(=O)c2ccccc2)CC1 (configuration not stated),"inconclusive: 3.16 µM [inhibitor, full curve, poor fit]"
11,COc1ccc(-n2c(=S)[nH]c3c(sc(=S)n3-c3ccccc3)c2=O)c(OC)c1,"inconclusive: 2.82 µM [inhibitor, partial curve, poor fit]"
12,O=C(/C=C/c1ccc2c(c1)OCO2)c1c(O)n(CCC2=CCCCC2)c(=O)[nH]c1=O,"inconclusive: 2.82 µM [inhibitor, partial curve, poor fit]"
13,Cc1ccccc1N1C(=O)NC(=O)/C(=C\c2cnn(-c3ccccc3)c2)C1=O,"inconclusive: 6.31 µM [inhibitor, single point]"
14,O=c1oc2ccccc2c(O)c1[C@H]1c2ccc(O)cc2Oc2c1c(=O)oc1ccccc21,"inconclusive: 3.98 µM [inhibitor, full curve]"
15,CN1C(=O)/C(=C/c2ccc(Cl)s2)C(=O)NC1=S,"inconclusive: 3.55 µM [inhibitor, single point]"
16,N#CC(C#N)=NNc1ccc(-n2ccc(C(F)(F)F)n2)cc1,"inconclusive: 1.41 µM [inhibitor, full curve, poor fit]"
17,Cc1ccc(N2C(=O)NC(=O)/C(=C\c3cnc(-c4ccccc4)nc3)C2=O)cc1,"inconclusive: 3.55 µM [inhibitor, full curve]"
18,CN1C2CCC1/C(=C/c1ccccn1)C(=O)/C2=C\c1ccccn1,"inconclusive: 2.51 µM [inhibitor, partial curve, poor fit]"
19,Cc1ccc(OP2(=O)Nc3cc(C)c(C)cc3S2)cc1 (configuration not stated),"inconclusive: 5.01 µM [inhibitor, single point]"

row,SMILES,Potency
1,COc1cc(/C=C/[N+](=O)[O-])ccc1OC(=O)c1cccnc1,"inconclusive: 3.98 µM [inhibitor, partial curve]"
2,O=C1NC(=S)NC(=O)C1=Cc1ccc(Br)s1,"inconclusive: 2.82 µM [inhibitor, full curve, poor fit]"
3,CN(C)c1ccc(/C=C/[N+](=O)[O-])cc1,inactive
4,Cc1nn(Cc2ccccc2)c(C)c1C=C1C(=O)NC(=S)NC1=O,"inconclusive: 3.16 µM [inhibitor, partial curve]"
5,O=C1NC(=O)N(c2ccccc2)C(=O)/C1=C\c1ccccc1[N+](=O)[O-],active: 28.2 µM
6,O=C(O)c1ccccc1-c1ccc(C=C2C(=O)N(c3ccccc3)C(=S)N(c3ccccc3)C2=O)o1,"inconclusive: 3.16 µM [inhibitor, partial curve]"
7,CCOC(=O)c1c(NS(=O)(=O)c2ccccc2)n(CCCOC)c2nc3ccccc3nc12,active: 2.24 µM
8,CN1C(=O)NC(=O)/C(=C\C=C\c2ccccc2[N+](=O)[O-])C1=O,"inconclusive: 2.24 µM [inhibitor, partial curve, poor fit]"
9,COc1cc(/C=C/[N+](=O)[O-])ccc1O,"inconclusive: 3.16 µM [inhibitor, full curve]"
10,O=C1NC(=O)N(CCc2ccc(F)cc2)C(=O)/C1=C/c1cccs1,"inconclusive: 3.55 µM [inhibitor, single point]"
11,CCCCn1c(O)c(C(=O)/C=C/c2ccc3c(c2)OCO3)c(=O)[nH]c1=O,"inconclusive: 3.98 µM [inhibitor, single point]"
12,CC(C)n1c(O)c(C2c3cc(Cl)ccc3Oc3[nH]c(=O)n(C(C)C)c(=O)c32)c(=O)[nH]c1=O (configuration not stated),"inconclusive: 0.891 µM [inhibitor, full curve, poor fit]"
13,O=C1NC(=O)C(=Cc2ccc(-c3ccc(S(=O)(=O)N4CCOCC4)cc3)o2)C(=O)N1,"inconclusive: 3.16 µM [inhibitor, full curve]"
14,O=C1NC(=O)N(Cc2ccc(F)cc2)C(=O)/C1=C/c1cccs1,"inconclusive: 3.55 µM [inhibitor, full curve]"
15,COc1cccc(C2CC3C(=O)C=CC2N3Cc2ccccc2)c1 (configuration not stated),"inconclusive: 12.6 µM [inhibitor, partial curve]"
16,CN1C(=O)NC(=O)/C(=C/c2ccc([N+](=O)[O-])s2)C1=O,"inconclusive: 2.82 µM [inhibitor, partial curve, poor fit]"
17,CCN(CC)c1ccc(NC(=O)c2cccc(C)c2)cc1S(=O)(=O)Nc1ccccc1OC,"inconclusive: 6.31 µM [inhibitor, single point]"
18,O=C(O)CCn1cc(C=C2C(=O)NC(=S)NC2=O)c(-c2ccccc2)n1,"inconclusive: 3.16 µM [inhibitor, full curve]"
